Reference: PubChem BioAssay AID280 (DTP/NCI, 2004)
The list shows only some results of the screen, not a fair sample: it gathers tests that were run many times, whatever their T/C, doses with no T/C, and many T/C values between a quarter and a half above the control. Other doses and runs of a compound stand elsewhere. T/C: endpoint of the treated group in % of that of the vehicle group. Some doses have a count of surviving animals in place of a T/C: the source holds a T/C of zero for them, seemingly a mark for toxic or unscored doses. Counts of survivors are from the toxicity check (mostly the fifth day) where no day follows; animals may have died later. Schedules are NCI's codes, taken here to give the interval after Q, in days (D) or hours (H), and the number of doses after X. Where survival is the endpoint, the PubChem record calls one and a half times the control and up active, and a quarter to a half above the control has no call in these data; cut-offs in other NCI protocols can differ.

Test system: nude mice, LOX melanoma ip, survival T/C
Experiment: NCI In Vivo Anticancer Drug Screen. Data for tumor model Human Amelanotic Melanoma (LOX) (intraperitoneal) in NU/NU BALB/C (nude) mice
Conditions: T/C endpoint: median survival time, schedule: Q04DX003 (ip), higher T/C = longer survival
Method: The antitumor activity of compounds was measured in mice bearing transplantable tumors. Survival or tumor size were measured and the results are expressed as the measurement made in the treated group (T) divided by the measurement made in the vehicle treated control group (C). The tumor model used in this assay is Human Amelanotic Melanoma (LOX) (intraperitoneal) in NU/NU BALB/C (nude) mice

[1] = dose: 800.0 mg/kg/injection, vehicle: saline with Tween-80

SMILES: COc1cc(C(=O)N/N=C/c2cccc([N+](=O)[O-])c2)cc(OC)c1OC
- survivor count (dose: 300.0 mg/kg/injection, vehicle: saline with Tween-80): 3 of 6 on day 10

SMILES: ClC1(Cl)Cc2ccccc21
- T/C (dose: 200.0 mg/kg/injection, vehicle: saline with Tween-80): 132 % of control
- survivor count [1]: 0 of 6 on day 10

SMILES: Cc1nc2c(N)cc(Cl)cc2[nH]1
- survivor count (dose: 400.0 mg/kg/injection, vehicle: saline with Tween-80): 1 of 6 on day 10
- survivor count [1]: 0 of 6 on day 10

SMILES: N/C(=N\OC(=O)Nc1ccc(CSc2ccc(Cl)cc2)o1)c1ccccn1
- survivor count (dose: 300.0 mg/kg/injection, vehicle: Klucel (hydroxypropylcellulose) (HPC)): 2 of 6 on day 10
